From paper PMC7862700
The list shows a part of the results, in another mix than the full data. For some of these results: At the low end of the ranking, values are background and their order means little. Some of the results follow. For some of these results: Construct or isoform of the protein are uncertain.

Sequences of proteins named here, by UniProt entry; tags and fusion partners are left off. A change or cut given only in a name is not applied to a line headed by its entry.
UniProt Q00613: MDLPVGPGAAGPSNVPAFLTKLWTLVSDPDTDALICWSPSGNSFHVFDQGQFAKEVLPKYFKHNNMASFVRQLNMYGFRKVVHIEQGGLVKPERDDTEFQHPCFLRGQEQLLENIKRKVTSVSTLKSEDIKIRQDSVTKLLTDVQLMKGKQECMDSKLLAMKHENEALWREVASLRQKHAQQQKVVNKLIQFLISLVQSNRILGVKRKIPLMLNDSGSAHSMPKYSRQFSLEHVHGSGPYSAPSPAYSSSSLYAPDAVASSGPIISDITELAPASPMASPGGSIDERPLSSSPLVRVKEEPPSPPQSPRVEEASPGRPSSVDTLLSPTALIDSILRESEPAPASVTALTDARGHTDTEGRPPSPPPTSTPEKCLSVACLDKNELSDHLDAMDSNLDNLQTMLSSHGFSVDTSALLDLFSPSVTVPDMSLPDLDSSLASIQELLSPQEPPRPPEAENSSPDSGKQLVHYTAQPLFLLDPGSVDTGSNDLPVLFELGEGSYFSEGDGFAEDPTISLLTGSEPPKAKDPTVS

Experiments:
HSF1 = HSF1 (UniProt Q00613); assay: DAPPL (digital affinity profiling via proximity ligation, sequencing); conditions: 10 mM Tris-HCl pH 7.5, 50 mM NaCl, 1 mM DTT, 4% glycerol, room temperature, 30 min; GST-TFs on glutathione beads, 16-mer random dsDNA library, 0.1% …; high values mean tight binding; double strand, one strand shown; scale: fold enrichment (6-mer frequency, TF over GST control)
ELF2 = target: T1, ELF2 (UniProt Q15723); assay: as above; conditions: 10 mM Tris-HCl pH 7.5, 50 mM NaCl, 1 mM DTT, 4% glycerol, room temperature, 30 min; GST-TFs on glutathione beads, 16-mer random dsDNA library, 0.1% …; high values mean tight binding; double strand, one strand shown; scale: fold enrichment (6-mer frequency, TF over GST control)
T1 sequence: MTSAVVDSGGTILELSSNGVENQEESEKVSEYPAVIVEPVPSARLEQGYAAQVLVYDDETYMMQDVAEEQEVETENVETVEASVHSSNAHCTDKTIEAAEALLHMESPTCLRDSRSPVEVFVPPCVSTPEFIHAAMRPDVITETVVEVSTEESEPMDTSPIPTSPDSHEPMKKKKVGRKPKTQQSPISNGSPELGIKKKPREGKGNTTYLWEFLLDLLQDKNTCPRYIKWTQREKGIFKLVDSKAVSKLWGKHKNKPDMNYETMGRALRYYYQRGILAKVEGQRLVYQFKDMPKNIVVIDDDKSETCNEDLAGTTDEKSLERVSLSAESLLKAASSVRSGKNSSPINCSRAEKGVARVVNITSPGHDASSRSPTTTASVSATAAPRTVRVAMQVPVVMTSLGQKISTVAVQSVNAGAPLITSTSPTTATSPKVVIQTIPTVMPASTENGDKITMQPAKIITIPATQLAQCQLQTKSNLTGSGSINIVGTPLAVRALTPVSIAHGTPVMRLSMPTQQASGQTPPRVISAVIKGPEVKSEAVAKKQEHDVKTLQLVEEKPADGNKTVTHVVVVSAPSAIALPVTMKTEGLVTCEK

Which binding signal (HSF1) does the source give for GTGCAC here?
The binding signal was 0.637.

What about the binding signal (ELF2) of the same sequence?
Its binding signal is 0.955.

For CATACG, which binding signal (HSF1) is on record?
Its binding signal is 0.884.

What about the binding signal (ELF2) of the same sequence?
The binding signal was 0.988.

Which binding signal (HSF1) does the source give for TTCAGG here?
The binding signal was 1.22.

And the binding signal (ELF2)?
The binding signal was 1.22.

How did the binding signal (HSF1) turn out when TACGTC was run?
Its binding signal is 0.967.

And the binding signal (ELF2)?
Its binding signal is 1.21.

What does the source list for CTGAGG?
binding signal (HSF1): 0.694; binding signal (ELF2): 0.826

Which results are given for ACGCCG?
binding signal (HSF1): 0.862; binding signal (ELF2): 1.03

With GGACTT as the sequence, how does the binding signal (HSF1) read?
The binding signal was 0.973.

What about the binding signal (ELF2) of the same sequence?
Its binding signal is 1.27.

With TGGCGT as the sequence, how does the binding signal (HSF1) read?
The binding signal was 0.844.

What about the binding signal (ELF2) of the same sequence?
Its binding signal is 0.953.

How did the binding signal (HSF1) turn out when GGCTCG was run?
The binding signal was 0.935.

And the binding signal (ELF2)?
Its binding signal is 0.973.

With CTCTAC as the sequence, how does the binding signal (HSF1) read?
Its binding signal is 1.37.

What about the binding signal (ELF2) of the same sequence?
Its binding signal is 1.5.

How did the binding signal (HSF1) turn out when TACAGA was run?
Its binding signal is 1.28.

And the binding signal (ELF2)?
The binding signal was 1.1.

CTCAGT was tested. Which binding signal (HSF1) did it give?
Its binding signal is 0.971.

What about the binding signal (ELF2) of the same sequence?
The binding signal was 1.14.

What does the source list for GATGCA?
binding signal (HSF1): 0.883; binding signal (ELF2): 1.1

What does the source list for GGTCAC?
binding signal (HSF1): 0.737; binding signal (ELF2): 0.948

Which results are given for GCGACA?
binding signal (HSF1): 0.751; binding signal (ELF2): 0.942

Which results are given for TGATAC?
binding signal (HSF1): 0.973; binding signal (ELF2): 1.09

Which binding signal (HSF1) does the source give for GGTAAC here?
The binding signal was 0.826.

What about the binding signal (ELF2) of the same sequence?
Its binding signal is 1.01.

With GCACGC as the sequence, how does the binding signal (HSF1) read?
The binding signal was 0.894.

And the binding signal (ELF2)?
Its binding signal is 1.01.

TCCGCG was tested. Which binding signal (HSF1) did it give?
The binding signal was 0.965.

And the binding signal (ELF2)?
The binding signal was 1.51.

Which binding signal (HSF1) does the source give for TGGCCG here?
Its binding signal is 0.884.

And the binding signal (ELF2)?
The binding signal was 1.01.

How did the binding signal (HSF1) turn out when TGCACC was run?
The binding signal was 0.892.

And the binding signal (ELF2)?
Its binding signal is 1.17.

TCAAAG was tested. Which binding signal (HSF1) did it give?
The binding signal was 1.17.

And the binding signal (ELF2)?
The binding signal was 1.03.

TAAGCA was tested. Which binding signal (HSF1) did it give?
Its binding signal is 1.29.

And the binding signal (ELF2)?
The binding signal was 0.951.

What does the source list for GCCATC?
binding signal (HSF1): 0.728; binding signal (ELF2): 0.877

Which binding signal (HSF1) does the source give for TAAGCC here?
The binding signal was 2.07.

And the binding signal (ELF2)?
Its binding signal is 1.1.

With GCAGAT as the sequence, how does the binding signal (HSF1) read?
Its binding signal is 0.958.

What about the binding signal (ELF2) of the same sequence?
The binding signal was 0.867.

How did the binding signal (HSF1) turn out when CTATGT was run?
The binding signal was 0.949.

What about the binding signal (ELF2) of the same sequence?
Its binding signal is 1.07.

Which results are given for CCTGCC?
binding signal (HSF1): 0.953; binding signal (ELF2): 1.23

How did the binding signal (HSF1) turn out when TTATGG was run?
The binding signal was 1.74.

What about the binding signal (ELF2) of the same sequence?
Its binding signal is 1.27.

Which binding signal (HSF1) does the source give for CTGACG here?
The binding signal was 0.928.

What about the binding signal (ELF2) of the same sequence?
Its binding signal is 1.07.

Which binding signal (HSF1) does the source give for GTGGTT here?
The binding signal was 0.724.

And the binding signal (ELF2)?
The binding signal was 0.889.

How did the binding signal (HSF1) turn out when AGCGGC was run?
Its binding signal is 0.798.

What about the binding signal (ELF2) of the same sequence?
The binding signal was 0.949.

With GAATCA as the sequence, how does the binding signal (HSF1) read?
Its binding signal is 1.06.

What about the binding signal (ELF2) of the same sequence?
The binding signal was 0.934.

What does the source list for TGAAGA?
binding signal (HSF1): 1.09; binding signal (ELF2): 0.929

What does the source list for TTGACG?
binding signal (HSF1): 0.909; binding signal (ELF2): 1.02

CACCTG was tested. Which binding signal (HSF1) did it give?
Its binding signal is 0.808.

What about the binding signal (ELF2) of the same sequence?
The binding signal was 0.9.

With CCACCT as the sequence, how does the binding signal (HSF1) read?
The binding signal was 0.931.

And the binding signal (ELF2)?
Its binding signal is 0.991.

With CAACGC as the sequence, how does the binding signal (HSF1) read?
The binding signal was 0.803.

And the binding signal (ELF2)?
The binding signal was 1.

Which binding signal (HSF1) does the source give for AGCAAC here?
The binding signal was 0.984.

What about the binding signal (ELF2) of the same sequence?
The binding signal was 1.06.

What does the source list for GTGTTG?
binding signal (HSF1): 0.709; binding signal (ELF2): 0.898

What does the source list for GCCTAC?
binding signal (HSF1): 1.01; binding signal (ELF2): 1.21
